Data: the supplement of paper PMC6331611
± gives the standard deviation of the averaged measurements. The lowest values were mostly taken out for another list; the other results follow.

Key:
[1] = tested on: Salmonella enterica serovar Typhimurium SL1344; experiment: normalized growth (OD600, IQM-normalized) in LPM (fraction of plate interquartile mean); higher = more bacterial growth (less inhibition); details: LPM pH 5.8; 10 µM; 16 h
[2] = tested on: Salmonella enterica serovar Typhimurium SL1344; experiment: normalized intracellular growth (luminescence, IQM-normalized) in RAW264.7 macrophages (fraction of plate interquartile mean); higher = more bacterial growth (less inhibition); details: 10 µM

SMILES	normalized growth [1]	normalized intracellular growth ([2]; time point: T3 (3 h))	normalized intracellular growth ([2]; time point: Tfinal (~6 h))
CN1[C@@H]2CC[C@H]1C[C@@H](OC(=O)C(O)c1ccccc1)C2 (stereo partly specified)	0.951 ± 0.11	1.01 ± 0.077	1.1 ± 0.14
CCOc1cc(NC(C)=O)ccc1C(=O)OC	1.07 ± 0.021	0.991 ± 0.061	1.01 ± 0.22
